Article doi:10.1101/2022.07.11.499601
Results are given in words; binding and its absence hold for the method and conditions named. Binding seen in cells or lysates may run through a third protein. Some entries that bind do so weakly or less than the wild type.

Protein sequences, listed by entry. Tags and fused reporters are not part of them.
UniProt P49682: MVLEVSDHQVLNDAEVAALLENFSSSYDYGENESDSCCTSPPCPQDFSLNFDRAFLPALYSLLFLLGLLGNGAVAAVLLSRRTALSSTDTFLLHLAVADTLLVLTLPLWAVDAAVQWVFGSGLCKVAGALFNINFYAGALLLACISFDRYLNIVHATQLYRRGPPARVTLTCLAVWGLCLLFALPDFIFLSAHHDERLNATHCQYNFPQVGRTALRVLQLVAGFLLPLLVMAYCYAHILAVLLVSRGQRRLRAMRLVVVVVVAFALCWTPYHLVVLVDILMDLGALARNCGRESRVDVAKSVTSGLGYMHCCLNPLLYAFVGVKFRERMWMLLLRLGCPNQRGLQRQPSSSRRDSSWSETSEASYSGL
UniProt P25098: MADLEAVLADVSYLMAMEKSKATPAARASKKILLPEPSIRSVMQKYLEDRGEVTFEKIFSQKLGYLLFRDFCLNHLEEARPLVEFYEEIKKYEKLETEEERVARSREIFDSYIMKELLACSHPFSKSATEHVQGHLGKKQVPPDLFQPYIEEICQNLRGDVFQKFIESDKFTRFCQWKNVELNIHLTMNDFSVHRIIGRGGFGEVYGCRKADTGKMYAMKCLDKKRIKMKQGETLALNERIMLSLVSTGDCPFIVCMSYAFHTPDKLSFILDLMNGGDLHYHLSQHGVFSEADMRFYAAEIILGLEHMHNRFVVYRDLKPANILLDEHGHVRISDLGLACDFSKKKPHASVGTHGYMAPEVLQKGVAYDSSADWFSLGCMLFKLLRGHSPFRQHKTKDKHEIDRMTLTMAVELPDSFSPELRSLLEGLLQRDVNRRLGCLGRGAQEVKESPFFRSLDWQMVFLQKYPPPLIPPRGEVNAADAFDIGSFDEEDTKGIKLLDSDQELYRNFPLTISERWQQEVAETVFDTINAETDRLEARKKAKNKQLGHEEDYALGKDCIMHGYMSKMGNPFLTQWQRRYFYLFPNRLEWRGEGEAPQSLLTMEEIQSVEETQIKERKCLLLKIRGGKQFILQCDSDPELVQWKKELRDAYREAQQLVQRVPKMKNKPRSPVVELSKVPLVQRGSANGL
UniProt P35626: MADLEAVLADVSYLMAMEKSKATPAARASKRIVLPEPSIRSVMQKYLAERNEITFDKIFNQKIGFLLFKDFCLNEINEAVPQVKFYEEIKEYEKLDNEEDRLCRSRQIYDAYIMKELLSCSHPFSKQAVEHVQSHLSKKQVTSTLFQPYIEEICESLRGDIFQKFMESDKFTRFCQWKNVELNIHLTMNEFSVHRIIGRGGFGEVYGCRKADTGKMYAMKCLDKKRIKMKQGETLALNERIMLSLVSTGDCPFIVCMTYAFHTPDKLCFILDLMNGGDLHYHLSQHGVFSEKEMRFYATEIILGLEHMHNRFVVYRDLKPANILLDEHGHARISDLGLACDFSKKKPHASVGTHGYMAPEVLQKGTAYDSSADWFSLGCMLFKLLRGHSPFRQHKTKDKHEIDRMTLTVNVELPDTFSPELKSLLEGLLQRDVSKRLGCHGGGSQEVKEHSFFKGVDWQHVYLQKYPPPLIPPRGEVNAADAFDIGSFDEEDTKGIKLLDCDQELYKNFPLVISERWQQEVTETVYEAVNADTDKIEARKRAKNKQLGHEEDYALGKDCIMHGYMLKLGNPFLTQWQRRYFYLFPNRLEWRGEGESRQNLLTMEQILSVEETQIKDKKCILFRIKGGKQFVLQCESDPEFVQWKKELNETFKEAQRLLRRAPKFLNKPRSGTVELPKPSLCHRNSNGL

Target: CXCR3-SmBiT (UniProt P49682)
Assay: split reporter

GRK2-LgBiT (from UniProt P25098 1-689) (enzyme)
binding: binds

GRK3-LgBiT (from UniProt P35626 1-688) (enzyme)
binding: binds
